# In the supplement of paper PMC8728848:
# Some of the results follow.
# B1: SHCBP1-GST (Homo sapiens), Q8NEM2 (protein)
# chain: MADGSLTGGGLEAAAMAPERMGWAVEQELASLEKGLFQDEDSCSDCSYRDKPGSSLQSFMPEGKTFFPEIFQTNQLLFYERFRAYQDYILADCKASEVQEFTAEFLEKVLEPSGWRAVWHTNVFKVLVEITDVDFAALKAVVRLAEPYLCDSQVSTFTMECMKELLDLKEHRLPLQELWVVFDDSGVFDQTALAIEHVRFFYQNIWRSWDEEEEDEYDYFVRCVEPRLRLHYDILEDRVPSGLIVDYHNLLSQCEESYRKFLNLRSSLSNCNSDSEQENISMVEGLKLYSEMEQLKQKLKLIENPLLRYVFGYQKNSNIQAKGVRSSGQKITHVVSSTMMAGLLRSLLTDRLCQEPGEEEREIQFHSDPLSAINACFEGDTVIVCPGHYVVHGTFSIADSIELEGYGLPDDIVIEKRGKGDTFVDCTGADIKISGIKFVQHDAVEGILIVHRGKTTLENCVLQCETTGVTVRTSAEFLMKNSDLYGAKGAGIEIYPGSQCTLSDNGIHHCKEGILIKDFLDEHYDIPKISMVNNIIHNNEGYGVVLVKPTIFSDLQENAEDGTEENKALKIQTSGEPDVAERVDLEELIECATGKMELCARTDPSEQVEGNCEIVNELIAASTQKGQIKKKRLSELGITQADDNLMSQEMFVGIVGNQFKWNGKGSFGTFLF
# Experiments:
# Assay in all cases: glycan array binding signal (z-score within array); higher = stronger binding
# Conditions in all cases: glycan notation: IUPAC condensed, linker removed
# [1] = biological target: Fuc(a1-2)[GalNAc(b1-3)]Gal
# In short: (§1)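 Glycan array data came from 3228 arrays in the Consortium for Functional Glycomics database, and only arrays with an available protein sequence were kept. Glycan names were put into IUPAC-condensed notation, and columns mapping to the same glycan were averaged. The binding signal is a within-array Z-score, averaged across arrays of one protein sequence run at different concentrations or buffers and across linkers. A negative Z-score can be read as non-binding.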
# [2] = biological target: Fuc(a1-3)GlcNAc
# In short: as §1
# [3] = biological target: Fuc(a1-3)[Gal(b1-4)]Glc6S
# In short: as §1
# [4] = biological target: Fuc(a1-3)[Gal(b1-4)]GlcNAc
# In short: as §1
# [5] = biological target: Fuc(a1-3)[Gal(b1-4)]GlcNAc(b1-2)Man
# In short: as §1
# [6] = biological target: Fuc(a1-3)[Gal(b1-4)]GlcNAc(b1-2)Man(a1-3)[Fuc(a1-3)[Gal(b1-4)]GlcNAc(b1-2)Man(a1-6)]Man(b1-4)GlcNAc(b1-4)GlcNAc
# In short: as §1
# [7] = biological target: Fuc(a1-3)[Gal(b1-4)]GlcNAc(b1-2)Man(a1-3)[Fuc(a1-3)[Gal(b1-4)]GlcNAc(b1-2)Man(a1-6)]Man(b1-4)GlcNAc(b1-4)[Fuc(a1-6)]GlcNAc
# In short: as §1
# [8] = biological target: Fuc(a1-3)[Gal(b1-4)]GlcNAc(b1-3)Gal(b1-3)[Fuc(a1-4)]GlcNAc
# In short: as §1
# [9] = biological target: Fuc(a1-3)[Gal(b1-4)]GlcNAc(b1-3)Gal(b1-4)[Fuc(a1-3)]GlcNAc
# In short: as §1
# [10] = biological target: Fuc(a1-3)[Gal(b1-4)]GlcNAc(b1-3)Gal(b1-4)[Fuc(a1-3)]GlcNAc(b1-3)Gal(b1-4)[Fuc(a1-3)]GlcNAc
# In short: as §1
# [11] = biological target: Fuc(a1-3)[Gal(b1-4)]GlcNAc(b1-3)GalNAc
# In short: as §1
# [12] = biological target: Fuc(a1-3)[Gal(b1-4)]GlcNAc(b1-6)GalNAc
# In short: as §1
# [13] = biological target: Fuc(a1-3)[Gal(b1-4)]GlcNAc(b1-6)[Gal(b1-3)GlcNAc(b1-3)]Gal(b1-4)Glc
# In short: as §1
# [14] = biological target: Fuc(a1-3)[Gal(b1-4)]GlcNAc6S
# In short: as §1
# [15] = biological target: Fuc(a1-3)[Gal3S(b1-4)]Glc
# In short: as §1
# [16] = biological target: Fuc(a1-3)[Gal3S(b1-4)]GlcNAc
# In short: as §1
# [17] = biological target: Fuc(a1-3)[Gal3S(b1-4)]GlcNAc6S
# In short: as §1
# [18] = biological target: Fuc(a1-3)[GalNAc(b1-4)]GlcNAc
# In short: as §1
# [19] = biological target: Fuc(a1-3)[GalNAc(b1-4)]GlcNAc6S
# In short: as §1
# [20] = biological target: Fuc(a1-4)GlcNAc
# In short: as §1
# [21] = biological target: Fuc(b1-3)GlcNAc
# In short: as §1
# [22] = biological target: Gal(a1-2)Gal
# In short: as §1
# [23] = biological target: Gal(a1-3)Gal
# In short: as §1
# [24] = biological target: Gal(a1-3)Gal(b1-3)GlcNAc
# In short: as §1
# [25] = biological target: Gal(a1-3)Gal(b1-3)GlcNAc(b1-2)Man
# In short: as §1
# [26] = biological target: Gal(a1-3)Gal(b1-3)GlcNAc(b1-2)Man(a1-3)[Gal(a1-3)Gal(b1-3)GlcNAc(b1-2)Man(a1-6)]Man(b1-4)GlcNAc(b1-4)GlcNAc
# In short: as §1
# [27] = biological target: Gal(a1-3)Gal(b1-3)GlcNAc(b1-3)GalNAc
# In short: as §1
# [28] = biological target: Gal(a1-3)Gal(b1-3)GlcNAc(b1-6)GalNAc
# In short: as §1
# [29] = biological target: Gal(a1-3)Gal(b1-3)[Fuc(a1-4)]GlcNAc(b1-2)Man(a1-3)[Gal(a1-3)Gal(b1-3)[Fuc(a1-4)]GlcNAc(b1-2)Man(a1-6)]Man(b1-4)GlcNAc(b1-4)GlcNAc
# In short: as §1
# [30] = biological target: Gal(a1-3)Gal(b1-4)Glc
# In short: as §1
binder,measurement,setting,value
B1,glycan array binding signal (z-score),[1],-1.05
same,glycan array binding signal (z-score),[2],-1.09
same,glycan array binding signal (z-score),[3],0.012
same,glycan array binding signal (z-score),[4],0.037
same,glycan array binding signal (z-score),[5],-0.592
same,glycan array binding signal (z-score),[6],-0.741
same,glycan array binding signal (z-score),[7],0.142
same,glycan array binding signal (z-score),[8],-0.974
same,glycan array binding signal (z-score),[9],0.532
same,glycan array binding signal (z-score),[10],-0.961
same,glycan array binding signal (z-score),[11],2.35
same,glycan array binding signal (z-score),[12],0.077
same,glycan array binding signal (z-score),[13],-0.649
same,glycan array binding signal (z-score),[14],0.613
same,glycan array binding signal (z-score),[15],0.616
same,glycan array binding signal (z-score),[16],-0.161
same,glycan array binding signal (z-score),[17],-0.123
same,glycan array binding signal (z-score),[18],0.35
same,glycan array binding signal (z-score),[19],-0.239
same,glycan array binding signal (z-score),[20],-0.788
same,glycan array binding signal (z-score),[21],-0.807
same,glycan array binding signal (z-score),[22],-0.065
same,glycan array binding signal (z-score),[23],-0.203
same,glycan array binding signal (z-score),[24],-1.18
same,glycan array binding signal (z-score),[25],-0.123
same,glycan array binding signal (z-score),[26],0.969
same,glycan array binding signal (z-score),[27],-0.114
same,glycan array binding signal (z-score),[28],0.271
same,glycan array binding signal (z-score),[29],0.787
same,glycan array binding signal (z-score),[30],1.01

# Reformatted: entries from further up.
binder	measurement	setting	value
B1	glycan array binding signal (z-score)	[27]	-0.114
same	glycan array binding signal (z-score)	[28]	0.271
